Results are given in words; binding and its absence hold for the method and conditions named. Binding seen in cells or lysates may run through a third protein. These calls come from enrichment with a bait or labelling near it, and not all partners need be listed.

One test deals with T1, Sc_Snt2p (S. cerevisiae) (UniProt P53127).
T1 sequence: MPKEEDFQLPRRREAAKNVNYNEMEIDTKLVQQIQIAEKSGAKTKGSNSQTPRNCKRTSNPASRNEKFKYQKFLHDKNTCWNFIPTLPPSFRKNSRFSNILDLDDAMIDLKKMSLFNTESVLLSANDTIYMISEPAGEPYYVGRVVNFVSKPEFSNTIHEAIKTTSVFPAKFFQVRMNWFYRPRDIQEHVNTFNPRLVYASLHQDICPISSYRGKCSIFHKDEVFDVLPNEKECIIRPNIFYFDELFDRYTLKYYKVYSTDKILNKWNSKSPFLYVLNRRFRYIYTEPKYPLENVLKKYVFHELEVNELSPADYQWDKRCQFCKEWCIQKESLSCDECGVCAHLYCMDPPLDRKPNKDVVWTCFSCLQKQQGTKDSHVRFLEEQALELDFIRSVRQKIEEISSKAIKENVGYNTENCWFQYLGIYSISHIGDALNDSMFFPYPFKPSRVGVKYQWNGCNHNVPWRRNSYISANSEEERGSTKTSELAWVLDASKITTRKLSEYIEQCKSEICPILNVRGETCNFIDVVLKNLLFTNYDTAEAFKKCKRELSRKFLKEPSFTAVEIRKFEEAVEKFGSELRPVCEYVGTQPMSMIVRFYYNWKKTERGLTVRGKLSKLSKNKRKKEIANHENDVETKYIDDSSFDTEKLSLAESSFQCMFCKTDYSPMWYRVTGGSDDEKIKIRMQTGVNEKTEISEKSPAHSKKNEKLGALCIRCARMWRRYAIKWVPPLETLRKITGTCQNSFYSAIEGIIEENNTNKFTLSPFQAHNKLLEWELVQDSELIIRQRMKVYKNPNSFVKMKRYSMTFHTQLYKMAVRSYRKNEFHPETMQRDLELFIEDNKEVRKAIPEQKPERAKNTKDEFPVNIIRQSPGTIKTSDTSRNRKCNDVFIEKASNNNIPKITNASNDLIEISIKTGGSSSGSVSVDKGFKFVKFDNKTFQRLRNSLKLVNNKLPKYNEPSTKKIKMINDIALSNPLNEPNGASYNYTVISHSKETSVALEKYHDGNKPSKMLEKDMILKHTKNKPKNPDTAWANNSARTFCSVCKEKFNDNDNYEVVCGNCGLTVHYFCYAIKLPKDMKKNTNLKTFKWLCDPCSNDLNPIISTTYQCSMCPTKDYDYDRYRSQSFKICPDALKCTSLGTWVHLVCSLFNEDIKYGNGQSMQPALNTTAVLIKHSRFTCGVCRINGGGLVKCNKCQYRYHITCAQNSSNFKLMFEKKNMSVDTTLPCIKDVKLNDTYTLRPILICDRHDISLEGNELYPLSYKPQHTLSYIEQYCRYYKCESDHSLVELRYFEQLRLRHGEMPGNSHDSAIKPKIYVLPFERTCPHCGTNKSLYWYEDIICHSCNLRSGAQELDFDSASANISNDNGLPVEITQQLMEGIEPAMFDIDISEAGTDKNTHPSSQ
The test can be described thus: affinity purification with mass spectrometry; TAP of baits TAP-tagged at their genes from S. cerevisiae extracts; eluates on 6-18% gels, Coomassie, bands and slices identified by MALDI peptide mapping and LC-MS/MS; common background removed, A-index cut-off 1.75.

The target in test [1] is T2, Sp_Alp13p (S. pombe), O13953.
T2 chain: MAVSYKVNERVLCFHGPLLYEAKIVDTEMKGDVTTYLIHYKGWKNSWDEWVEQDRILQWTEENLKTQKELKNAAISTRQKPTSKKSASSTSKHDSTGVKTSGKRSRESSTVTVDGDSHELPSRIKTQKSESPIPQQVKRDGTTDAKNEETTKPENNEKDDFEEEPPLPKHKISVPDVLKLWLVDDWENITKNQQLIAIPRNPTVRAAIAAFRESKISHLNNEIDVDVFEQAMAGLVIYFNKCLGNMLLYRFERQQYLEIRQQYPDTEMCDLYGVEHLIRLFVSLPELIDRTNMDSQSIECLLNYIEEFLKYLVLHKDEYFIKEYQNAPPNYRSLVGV
The test can be described thus: affinity purification with mass spectrometry; TAP of baits TAP-tagged at their genes from S. pombe extracts; eluates on 6-18% gels, Coomassie, bands and slices identified by MALDI peptide mapping and LC-MS/MS; common background removed, A-index cut-off 1.75. The settings on record: remark: other sources report otherwise.

The target in the next test is T3, Sc_Rpd3p (S. cerevisiae) (UniProt P32561).
T3 sequence: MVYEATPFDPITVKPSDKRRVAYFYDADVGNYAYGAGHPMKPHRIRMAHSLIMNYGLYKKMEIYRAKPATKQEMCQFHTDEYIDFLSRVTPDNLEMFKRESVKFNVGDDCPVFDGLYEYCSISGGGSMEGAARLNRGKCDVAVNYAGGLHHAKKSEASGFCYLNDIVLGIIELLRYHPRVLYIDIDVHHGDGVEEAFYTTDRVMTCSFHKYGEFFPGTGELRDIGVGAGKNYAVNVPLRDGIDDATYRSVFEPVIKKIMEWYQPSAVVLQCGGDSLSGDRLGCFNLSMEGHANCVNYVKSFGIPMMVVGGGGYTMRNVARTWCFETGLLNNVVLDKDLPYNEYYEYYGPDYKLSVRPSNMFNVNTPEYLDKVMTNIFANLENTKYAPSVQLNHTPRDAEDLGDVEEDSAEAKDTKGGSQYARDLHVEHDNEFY
The test can be described thus: affinity purification with mass spectrometry; TAP of baits TAP-tagged at their genes from S. cerevisiae extracts; eluates on 6-18% gels, Coomassie, bands and slices identified by MALDI peptide mapping and LC-MS/MS; common background removed, A-index cut-off 1.75.

The target of the next test is T4, Sp_Set3p (S. pombe) (UniProt Q10362).
T4 sequence: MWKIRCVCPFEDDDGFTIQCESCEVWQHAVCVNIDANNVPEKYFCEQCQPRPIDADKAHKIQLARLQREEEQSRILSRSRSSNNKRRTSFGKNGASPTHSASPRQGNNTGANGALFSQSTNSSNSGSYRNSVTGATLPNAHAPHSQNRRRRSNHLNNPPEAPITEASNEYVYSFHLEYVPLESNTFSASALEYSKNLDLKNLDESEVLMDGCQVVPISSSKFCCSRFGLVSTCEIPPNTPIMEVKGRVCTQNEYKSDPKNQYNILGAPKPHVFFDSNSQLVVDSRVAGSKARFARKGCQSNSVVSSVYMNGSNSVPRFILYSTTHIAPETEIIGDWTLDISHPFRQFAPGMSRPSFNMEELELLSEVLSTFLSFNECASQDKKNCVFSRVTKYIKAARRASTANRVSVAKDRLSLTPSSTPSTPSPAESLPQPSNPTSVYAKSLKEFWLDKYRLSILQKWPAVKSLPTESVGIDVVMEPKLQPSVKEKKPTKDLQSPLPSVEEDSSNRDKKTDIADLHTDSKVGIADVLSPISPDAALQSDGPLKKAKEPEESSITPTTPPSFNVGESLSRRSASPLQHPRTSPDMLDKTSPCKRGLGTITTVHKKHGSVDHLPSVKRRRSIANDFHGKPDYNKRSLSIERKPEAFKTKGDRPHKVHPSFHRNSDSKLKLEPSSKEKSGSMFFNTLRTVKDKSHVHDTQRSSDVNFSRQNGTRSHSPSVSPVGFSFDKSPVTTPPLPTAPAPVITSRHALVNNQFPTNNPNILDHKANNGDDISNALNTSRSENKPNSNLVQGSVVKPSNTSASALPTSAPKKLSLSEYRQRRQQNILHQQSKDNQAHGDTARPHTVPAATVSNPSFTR
The test can be described thus: affinity purification with mass spectrometry; TAP of baits TAP-tagged at their genes from S. pombe extracts; eluates on 6-18% gels, Coomassie, bands and slices identified by MALDI peptide mapping and LC-MS/MS; common background removed, A-index cut-off 1.75.

B1: Sc_Rpd3p (protein, UniProt P32561 1-433)
chain: T3 sequence
Take B1: the binding result with Sc_Snt2p (S. cerevisiae) is “binds”.

B2: Sp_Prw1p, O14021 1-431 (protein)
chain: MAVSAVPHPSKQAQASEEGINQEKCINEEYKIWKKNSPFLYDLIITRALEWPCMSLQWYPEQQIFAEHGYTEQKMFLGVRADVGKYLLAVASIQLPYLNQTVPPTTMEGASAGDESSLRVNISNLYSHPESVCSAKLMPQDDSCVATVGNYHNDVLVFDKESFESYSSASESPLKPKYRLTKHTQPCTSVCWNFLSKGTLVSGSQDATLSCWDLNAYNESDSASVLKVHISSHEKQVSDVRFHYKHQDLLASVSYDQYLHVHDIRRPDASTKPARSVHAHSGPIHSVAFNPHNDFILATCSTDKTIALWDLRNLNQRLHTLEGHEDIVTKISFSPHEEPILASTSADRRTLVWDLSRIGEDQPAEEAQDGPPELLFMHGGHTSCTIDMDWCPNYNWTMATAAEDNILQIWTPSRSIWGNEQLEEDATAYLS
Turning to B2, the binding result in test [1] was “binds”.

B3: Sc_Ecm5p (protein, UniProt Q03214 1-1411)
chain: MSGHDSVTKISHILNEPVNEKVMVQNGFHESSKIADIELEIQERPSIKQWESPRSAVIPTSNHNFSPFLYTQFKSRGAAPFAPETIKSVDLVELPEGVPARVFHEKTGLFYQISPHSIPTFILAKKELPDPIKFYELVEDLGSVYGCVKLKIIPDADKFTQLNVDVDRLWFKARKQFFNSNEFQRTKIVDFYAKLYNFHNKIKKSTLTRIPSIDKRTLDLYRLRSCVKLRGGFNAVCEKKLWAQIGRELGYSGRIMSSLSTSLRSAYAKILLDFDIYEEEEQAARNNEKNEDMVESEIFRHSNSRSRDEEEPLHKKAKIHRDVFRAGSINHEFKRMRDIKHIKGFPTYFNSLTEFKLGYTQSTETTLPGYDFTFWENGMEIYDKSKYETKTSPVYNLRQYYEKSLAVFTAIVAKFGSSYPDLFAKHTTLPQKEFERLYFHLLSEHFIDFEIDTGLGLPCSMRSPGNNSSNEKFAIKNILDQWNLDNIPLNELSLLQHLDLDMANFTRTTYDIGMLFSCQGWSVSDHFLPSIDFNHLGSTKLVYSIAPKDMEKFEALIARGKSEWDTIQSRPRYSTSDDELKSFIETDFYKSFLDAEQSADYSNTGDNSKNSFPEDKIAGNTLHDGSQSDFIFEPNFILANGIKLYKTTQEQGSYIFKFPKAFTCSIGSGFYLSQNAKFAPSSWLRFSSEAAKWTSKMGFLPGLDVNQLLINALLNSNNPVLRKKCRDLISNYVVEEAENSKKLGELIGTVDVVYNKLNYISDISLESTGLSKIVVTHGALQRNLSLKEFVVLLEKPENGAHSICGIPIRDQSGNLNVCLHSYFDSASLGIALDGLDKPPTSYLLVHNEDFEKKWDVLMTSTFRNRTVPLNIIQYLISHTDSNTEFNRMLRSNFDDSLLLIEKCKKFIKTFVDVSCSVKDVDFGNGFNLRHLPLKFSDNMADNLESLYESVRKCSIEFSEKPTIIRLYHVSRQFPIDNRDIIDGNNLDLLKELYQKSLTIPLKVSYWTKLTRKICRLEWLSVYEHIFIERCDIKNEDPAKYSLPLLYSYFEFGLKYCDSEDIDKLGEVRKLILKYQDMMQKVRVFLKKDPPSKISLSDLEDVLLDIEEYRLPIQSSFFSELDYVIREIENAKKMNDVNILYNTDNIDKIDELIRKNDPKFVKFANQFNGSRLDKRPLASDNSGSVKAKQELKVFKLWNQHLDQIMQKNKFIEILPSIFRCLDLKSDKYIPLESCSKRQTKYCFCRRVEEGTAMVECEICKEWYHVDCISNGELVPPDDPNVLFVCSICTPPCMAVDNIEGVTFELDDLKRILVESLKLSLIPDPPILKNLFDVFAFALNFKNEMEKELFTNGYVNQLSSTHKIKYYLRKLKGSQCGFTNLTDPLRKHCQVKDAEAIKWLTDNGRIIITGIPN
Consider B3, for which the binding result with Sc_Snt2p (S. cerevisiae) and with Sc_Rpd3p (S. cerevisiae) was “binds” throughout.

B4: Sp_Hif2p (protein, UniProt O74845 1-564)
chain: MDTNQVNYIIWRYLKECGYSHTKFAFERETGIQNLDKQWGSTCQVGALVEILQKGLQYVELEKHYVDNHSSNEEASKTSIDGESLVNENPCKLPFYLTVPHICETTLTKADSTNGFCEHNNSNDHQLKILQDKGSGSPSSPVMPFKDKIEKRDIDITMADESNVEKDPARPIAVYNSSPVTEITEIKQVTFTGGEDIKSDFFKVIPTKHPVTCADWRPLLQENYHVYEFSIGMTNATLASVSICEEQNDFKAKTDYCLQSSFDNQDITGVAWNNSGSFLAYAFFSGVIEIYDSHGSQILSFHNNKGPVLSLKWSGTDTYLAAGSADGTITLFDQLKQTQYSIDTLASSVLDIEWISFDEFVTSDVEGSLRVYKVDGKAPVSTVSHAHDNSIVALRYNLRISLLLTASSDTTVKLWSRGDAGAFECLHVFSFSSPVNCIDWNLREGTPILAVASNSIVSMYNAISLQQLAVFMRHTAPVSALSFSHNGRYLATGDTSGGVCIWSCKTAKLFKELGSDNSELIAVTNVLPEEQVNFLRWSFDDKDLLIGKQKKEIICCCDFLHDSL
Regarding B4, the binding entry with Sp_Set3p (S. pombe) is recorded as “binds”.

The values above are taken from paper PMC2614481.
